Assay results as given in the supplement of paper PMC10849652.
The list shows a part of the results.

Amino acid sequences for entries named in this document (tags omitted). A change or cut given only in a name is not applied to a line headed by its entry.
UniProt Q9Y6W3: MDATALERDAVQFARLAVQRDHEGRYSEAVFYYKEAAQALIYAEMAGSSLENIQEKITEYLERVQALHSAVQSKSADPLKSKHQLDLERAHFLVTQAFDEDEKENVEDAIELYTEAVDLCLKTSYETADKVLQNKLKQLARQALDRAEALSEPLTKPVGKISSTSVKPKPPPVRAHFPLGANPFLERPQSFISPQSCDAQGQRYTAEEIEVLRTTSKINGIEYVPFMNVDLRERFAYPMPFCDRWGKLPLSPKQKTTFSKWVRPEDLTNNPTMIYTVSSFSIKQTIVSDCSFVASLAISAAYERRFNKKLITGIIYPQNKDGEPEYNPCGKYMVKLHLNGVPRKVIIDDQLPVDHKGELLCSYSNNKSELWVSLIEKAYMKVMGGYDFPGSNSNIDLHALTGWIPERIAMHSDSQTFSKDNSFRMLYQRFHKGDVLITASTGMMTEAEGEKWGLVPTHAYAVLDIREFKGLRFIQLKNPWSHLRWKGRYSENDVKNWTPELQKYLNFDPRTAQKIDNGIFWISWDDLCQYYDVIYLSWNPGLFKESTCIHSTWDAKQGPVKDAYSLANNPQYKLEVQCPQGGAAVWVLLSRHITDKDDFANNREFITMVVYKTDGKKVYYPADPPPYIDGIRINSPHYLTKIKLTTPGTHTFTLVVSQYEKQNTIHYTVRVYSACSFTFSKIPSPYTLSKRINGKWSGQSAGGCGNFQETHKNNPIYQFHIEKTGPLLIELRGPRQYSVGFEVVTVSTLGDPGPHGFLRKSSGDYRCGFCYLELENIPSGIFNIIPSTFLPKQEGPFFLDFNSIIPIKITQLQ
UniProt P47756, whole entry, looked up: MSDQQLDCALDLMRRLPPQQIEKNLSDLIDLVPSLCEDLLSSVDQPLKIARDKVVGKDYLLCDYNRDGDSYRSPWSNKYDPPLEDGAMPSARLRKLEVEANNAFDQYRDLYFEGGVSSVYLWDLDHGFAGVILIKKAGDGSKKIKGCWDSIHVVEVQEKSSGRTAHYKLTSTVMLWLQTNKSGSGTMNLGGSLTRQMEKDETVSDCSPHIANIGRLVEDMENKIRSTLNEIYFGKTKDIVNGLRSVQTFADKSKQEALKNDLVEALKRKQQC
UniProt P49069: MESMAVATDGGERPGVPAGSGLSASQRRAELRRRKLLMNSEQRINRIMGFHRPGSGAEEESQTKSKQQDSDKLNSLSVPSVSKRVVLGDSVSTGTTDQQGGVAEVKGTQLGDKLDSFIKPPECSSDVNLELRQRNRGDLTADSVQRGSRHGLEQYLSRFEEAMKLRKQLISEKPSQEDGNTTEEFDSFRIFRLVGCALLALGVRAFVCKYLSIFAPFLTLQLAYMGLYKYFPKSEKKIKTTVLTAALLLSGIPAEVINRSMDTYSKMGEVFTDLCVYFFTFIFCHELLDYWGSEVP
UniProt O43684, whole entry, looked up: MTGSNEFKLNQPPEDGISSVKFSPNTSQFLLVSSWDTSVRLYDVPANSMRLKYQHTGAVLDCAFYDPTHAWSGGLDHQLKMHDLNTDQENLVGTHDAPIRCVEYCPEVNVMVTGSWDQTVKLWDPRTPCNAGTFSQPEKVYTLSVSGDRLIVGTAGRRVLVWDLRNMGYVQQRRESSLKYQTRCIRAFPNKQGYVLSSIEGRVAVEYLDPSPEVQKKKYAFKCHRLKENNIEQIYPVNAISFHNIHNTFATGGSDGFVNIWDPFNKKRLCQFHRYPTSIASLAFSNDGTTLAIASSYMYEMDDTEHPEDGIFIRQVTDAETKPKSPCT
UniProt Q86VP6: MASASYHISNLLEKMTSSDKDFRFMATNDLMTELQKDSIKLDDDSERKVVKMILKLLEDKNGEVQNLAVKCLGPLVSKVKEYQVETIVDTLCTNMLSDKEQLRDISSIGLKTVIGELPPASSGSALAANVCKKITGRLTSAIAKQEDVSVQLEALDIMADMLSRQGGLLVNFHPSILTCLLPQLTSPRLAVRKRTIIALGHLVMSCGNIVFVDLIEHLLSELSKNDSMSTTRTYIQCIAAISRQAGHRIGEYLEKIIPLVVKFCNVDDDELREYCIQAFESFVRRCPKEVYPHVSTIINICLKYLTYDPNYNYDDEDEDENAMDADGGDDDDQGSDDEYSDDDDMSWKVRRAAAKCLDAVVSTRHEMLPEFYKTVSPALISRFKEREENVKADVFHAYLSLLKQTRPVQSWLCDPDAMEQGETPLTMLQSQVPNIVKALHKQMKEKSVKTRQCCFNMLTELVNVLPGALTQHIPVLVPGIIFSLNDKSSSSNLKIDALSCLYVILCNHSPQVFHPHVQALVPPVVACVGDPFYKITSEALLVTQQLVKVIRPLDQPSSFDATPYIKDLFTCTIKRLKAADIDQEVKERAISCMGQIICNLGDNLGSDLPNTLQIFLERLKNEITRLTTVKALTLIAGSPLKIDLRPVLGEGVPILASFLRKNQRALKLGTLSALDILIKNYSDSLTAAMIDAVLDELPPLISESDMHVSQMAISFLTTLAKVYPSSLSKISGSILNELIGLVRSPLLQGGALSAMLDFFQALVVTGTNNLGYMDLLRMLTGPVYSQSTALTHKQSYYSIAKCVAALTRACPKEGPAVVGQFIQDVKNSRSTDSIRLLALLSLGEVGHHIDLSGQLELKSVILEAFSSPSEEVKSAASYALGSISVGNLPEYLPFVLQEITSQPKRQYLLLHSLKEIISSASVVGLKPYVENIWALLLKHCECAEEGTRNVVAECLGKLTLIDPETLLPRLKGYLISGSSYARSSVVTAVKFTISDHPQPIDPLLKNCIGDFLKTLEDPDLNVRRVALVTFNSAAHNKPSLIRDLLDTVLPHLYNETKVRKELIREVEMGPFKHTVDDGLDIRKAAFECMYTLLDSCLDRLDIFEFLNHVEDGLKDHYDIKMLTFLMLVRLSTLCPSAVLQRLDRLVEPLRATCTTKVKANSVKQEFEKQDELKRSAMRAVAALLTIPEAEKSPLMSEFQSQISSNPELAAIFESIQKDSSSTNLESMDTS
UniProt Q9Y6E2: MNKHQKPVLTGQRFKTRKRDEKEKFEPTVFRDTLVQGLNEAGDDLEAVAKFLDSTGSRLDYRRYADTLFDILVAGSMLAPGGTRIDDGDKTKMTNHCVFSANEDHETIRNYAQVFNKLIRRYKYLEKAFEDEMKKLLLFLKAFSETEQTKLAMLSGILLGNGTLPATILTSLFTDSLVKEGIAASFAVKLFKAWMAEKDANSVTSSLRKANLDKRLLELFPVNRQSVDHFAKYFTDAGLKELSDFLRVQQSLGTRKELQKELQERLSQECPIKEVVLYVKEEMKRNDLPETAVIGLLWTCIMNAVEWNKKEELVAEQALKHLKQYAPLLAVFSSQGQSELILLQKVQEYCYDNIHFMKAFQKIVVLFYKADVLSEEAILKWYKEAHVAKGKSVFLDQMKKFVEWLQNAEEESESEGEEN
UniProt Q96RR4, whole entry, looked up: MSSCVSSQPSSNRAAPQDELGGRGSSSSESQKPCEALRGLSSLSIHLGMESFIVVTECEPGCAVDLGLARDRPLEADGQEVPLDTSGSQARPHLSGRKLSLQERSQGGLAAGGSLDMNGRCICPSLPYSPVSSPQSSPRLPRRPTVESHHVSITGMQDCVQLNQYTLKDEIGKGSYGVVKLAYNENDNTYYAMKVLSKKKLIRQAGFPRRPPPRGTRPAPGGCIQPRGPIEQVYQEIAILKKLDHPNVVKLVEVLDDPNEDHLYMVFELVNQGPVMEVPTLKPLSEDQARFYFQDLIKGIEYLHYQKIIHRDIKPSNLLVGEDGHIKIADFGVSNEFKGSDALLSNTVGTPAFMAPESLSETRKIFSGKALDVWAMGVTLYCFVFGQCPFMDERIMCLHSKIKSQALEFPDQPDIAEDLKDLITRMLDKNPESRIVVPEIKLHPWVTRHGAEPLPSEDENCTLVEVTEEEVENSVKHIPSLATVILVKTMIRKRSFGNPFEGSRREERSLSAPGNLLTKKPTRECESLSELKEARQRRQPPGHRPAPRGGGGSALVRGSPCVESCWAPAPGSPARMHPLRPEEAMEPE
UniProt Q8IYL3: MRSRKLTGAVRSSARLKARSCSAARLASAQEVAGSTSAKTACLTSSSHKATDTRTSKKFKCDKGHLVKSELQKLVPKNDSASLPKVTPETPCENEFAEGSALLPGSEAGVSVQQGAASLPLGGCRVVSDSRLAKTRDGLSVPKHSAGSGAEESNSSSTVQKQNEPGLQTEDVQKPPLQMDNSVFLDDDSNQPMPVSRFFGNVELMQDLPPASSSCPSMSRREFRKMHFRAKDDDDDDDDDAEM
UniProt Q9BSJ5: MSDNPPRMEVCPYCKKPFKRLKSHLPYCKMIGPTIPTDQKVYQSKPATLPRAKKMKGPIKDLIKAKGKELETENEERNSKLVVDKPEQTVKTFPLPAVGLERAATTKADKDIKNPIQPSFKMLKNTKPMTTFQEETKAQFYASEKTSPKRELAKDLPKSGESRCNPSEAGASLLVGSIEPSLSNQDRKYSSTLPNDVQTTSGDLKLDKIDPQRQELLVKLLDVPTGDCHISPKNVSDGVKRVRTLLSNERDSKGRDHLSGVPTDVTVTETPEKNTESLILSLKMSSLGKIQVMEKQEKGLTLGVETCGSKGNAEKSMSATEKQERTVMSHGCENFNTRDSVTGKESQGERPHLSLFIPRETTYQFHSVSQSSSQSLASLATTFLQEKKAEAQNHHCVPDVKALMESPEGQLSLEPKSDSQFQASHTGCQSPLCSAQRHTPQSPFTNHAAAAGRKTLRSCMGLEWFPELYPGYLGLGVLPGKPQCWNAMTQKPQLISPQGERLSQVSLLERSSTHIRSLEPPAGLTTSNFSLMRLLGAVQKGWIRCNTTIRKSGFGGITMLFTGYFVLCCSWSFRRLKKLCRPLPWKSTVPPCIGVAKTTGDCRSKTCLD
UniProt Q7L1Q6: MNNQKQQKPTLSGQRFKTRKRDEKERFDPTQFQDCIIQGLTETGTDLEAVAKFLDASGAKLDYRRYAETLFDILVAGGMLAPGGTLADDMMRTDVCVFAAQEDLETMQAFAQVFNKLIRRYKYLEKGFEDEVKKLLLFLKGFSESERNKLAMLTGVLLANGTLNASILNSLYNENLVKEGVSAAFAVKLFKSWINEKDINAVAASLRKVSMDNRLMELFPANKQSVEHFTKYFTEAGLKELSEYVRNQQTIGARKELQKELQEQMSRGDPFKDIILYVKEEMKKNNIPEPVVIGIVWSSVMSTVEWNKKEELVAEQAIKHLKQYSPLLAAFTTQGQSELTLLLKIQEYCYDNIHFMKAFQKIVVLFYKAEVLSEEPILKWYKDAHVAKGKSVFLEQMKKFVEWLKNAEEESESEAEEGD
UniProt Q14444, whole entry, looked up: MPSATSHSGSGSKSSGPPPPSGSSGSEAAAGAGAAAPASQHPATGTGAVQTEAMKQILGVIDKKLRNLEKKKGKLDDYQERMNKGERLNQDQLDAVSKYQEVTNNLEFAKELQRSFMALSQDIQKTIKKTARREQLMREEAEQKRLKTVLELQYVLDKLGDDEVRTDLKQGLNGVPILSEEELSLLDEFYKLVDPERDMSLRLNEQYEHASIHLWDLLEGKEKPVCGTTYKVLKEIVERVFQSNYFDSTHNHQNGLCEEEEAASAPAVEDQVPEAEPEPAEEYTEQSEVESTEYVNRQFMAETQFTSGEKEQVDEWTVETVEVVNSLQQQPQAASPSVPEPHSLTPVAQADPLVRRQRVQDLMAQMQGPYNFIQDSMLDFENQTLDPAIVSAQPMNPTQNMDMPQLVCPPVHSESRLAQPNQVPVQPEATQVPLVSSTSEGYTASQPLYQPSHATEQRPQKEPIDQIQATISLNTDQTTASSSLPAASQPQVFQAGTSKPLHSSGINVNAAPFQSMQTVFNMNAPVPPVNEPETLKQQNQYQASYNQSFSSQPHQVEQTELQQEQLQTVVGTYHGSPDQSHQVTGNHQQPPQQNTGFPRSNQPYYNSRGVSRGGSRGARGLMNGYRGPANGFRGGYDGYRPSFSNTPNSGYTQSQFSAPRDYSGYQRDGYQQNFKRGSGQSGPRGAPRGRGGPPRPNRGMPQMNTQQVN
UniProt P27824: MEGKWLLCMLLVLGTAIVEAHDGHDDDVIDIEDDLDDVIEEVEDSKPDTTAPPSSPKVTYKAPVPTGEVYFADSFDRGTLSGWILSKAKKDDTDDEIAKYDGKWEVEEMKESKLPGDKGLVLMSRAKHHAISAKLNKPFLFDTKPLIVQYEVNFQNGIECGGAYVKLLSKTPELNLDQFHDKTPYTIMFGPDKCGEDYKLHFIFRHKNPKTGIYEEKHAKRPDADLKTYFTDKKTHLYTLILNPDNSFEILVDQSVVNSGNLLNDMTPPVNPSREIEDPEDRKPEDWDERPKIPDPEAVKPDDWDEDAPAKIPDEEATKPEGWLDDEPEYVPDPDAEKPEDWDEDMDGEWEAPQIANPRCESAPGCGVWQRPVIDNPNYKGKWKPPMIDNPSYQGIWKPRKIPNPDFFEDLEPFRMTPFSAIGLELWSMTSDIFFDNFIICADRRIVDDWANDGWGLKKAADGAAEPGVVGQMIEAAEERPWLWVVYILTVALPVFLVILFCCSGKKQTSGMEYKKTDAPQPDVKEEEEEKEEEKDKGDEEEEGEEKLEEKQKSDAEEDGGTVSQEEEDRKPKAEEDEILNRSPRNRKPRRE

Columns and labels:
Experiment in all cases: log2 fold change, soluble protein after heating vs DMSO (PISA); higher = thermal stabilisation; K562 cells, 10 uM, 30 min; active = over 0.2 and 3.5 SD of the protein, either way, in both replicates (recomputed)
[1] = compound: COC1=CC=C(C=C1)CN2C=CC3=C2C=C(C=C3)C(=O)NO
Summary of the method: (§1)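 K562 cells (2×10^6 cells/mL) were treated with 10 μM compound for 30 min, and aliquots were heated for 3 min over 48°C-58°C. Pooled aliquots were extracted in PBS with 0.5% NP-40 at 4°C, and the supernatant after 21,000xg for 90 min was measured by TMTpro 16plex LC-MS/MS with channel sums equalised. Reported thermal stability, relative to control samples and from duplicates, is a log2 fold change.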

filanesib = compound: CON(C)C(=O)N1N=C(c2cc(F)ccc2F)S[C@@]1(CCCN)c1ccccc1 [filanesib]
Summary of the method: as §1

zotarolimus = compound: CO[C@H]1C[C@@H]2CC[C@@H](C)[C@@](O)(O2)C(=O)C(=O)N2CCCC[C@H]2C(=O)O[C@H]([C@H](C)C[C@@H]2CC[C@H](n3cnnn3)[C@H](OC)C2)CC(=O)[C@H](C)/C=C(\C)[C@@H](O)[C@@H](OC)C(=O)[C@H](C)C[C@H](C)/C=C/C=C/C=C/1C [zotarolimus]
Summary of the method: as §1

idasanutlin = compound: COc1cc(C(=O)O)ccc1NC(=O)[C@@H]1N[C@@H](CC(C)(C)C)[C@](C#N)(c2ccc(Cl)cc2F)[C@H]1c1cccc(Cl)c1F [idasanutlin]
Summary of the method: as §1

alisertib = compound: COc1cc(Nc2ncc3c(n2)-c2ccc(Cl)cc2C(c2c(F)cccc2OC)=NC3)ccc1C(=O)O [alisertib]
Summary of the method: as §1

[2] = compound: COc1cc2nc(-c3cc(F)ccc3O)nc(N[C@@H]3CNC[C@H]3C(C)(C)O)c2cc1OC
Summary of the method: as §1

gefitinib = compound: COc1cc2ncnc(Nc3ccc(F)c(Cl)c3)c2cc1OCCCN1CCOCC1 [gefitinib]
Summary of the method: as §1

[3] = compound: COc1cccc2cc(-c3nc([C@H]4CC[C@H](C(=O)O)CC4)n4ncnc(N)c34)[nH]c12
Summary of the method: as §1

lapatinib = compound: CS(=O)(=O)CCNCc1ccc(-c2ccc3ncnc(Nc4ccc(OCc5cccc(F)c5)c(Cl)c4)c3c2)o1 [lapatinib]
Summary of the method: as §1

pictilisib = compound: CS(=O)(=O)N1CCN(Cc2cc3nc(-c4cccc5[nH]ncc45)nc(N4CCOCC4)c3s2)CC1 [pictilisib]
Summary of the method: as §1

Measured: log2 fold change

C20orf27 isoform 2 (UniProt Q9GZN8)
inactive: [1] 0.054 | filanesib -0.117 | zotarolimus 0.028 | idasanutlin -0.124 | alisertib -0.061 | [2] 0.036 | gefitinib -0.038 | [3] 0.081 | lapatinib 0.021 | pictilisib 0.174

CAPN7 (UniProt Q9Y6W3)
inactive: [1] 0.066 | filanesib -0.104 | zotarolimus 0.049 | idasanutlin 0.004 | alisertib 0.024 | [2] -0.025 | gefitinib 0.014 | [3] 0.015 | lapatinib 0.001 | pictilisib -0.026

CA8 (UniProt P35219)
inactive: [1] 0.046 | filanesib -0.055 | zotarolimus 0.09 | idasanutlin -0.073 | alisertib -0.112 | [2] -0.086 | gefitinib 0.023 | [3] 0.032 | lapatinib 0.008 | pictilisib 0.173

CAPZB (UniProt P47756)
inactive: [1] -0.039 | filanesib -0.067 | zotarolimus 0.015 | idasanutlin -0.004 | alisertib -0.059 | [2] 0.074 | gefitinib 0.003 | [3] -0.005 | lapatinib -0.04 | pictilisib 0.021

CAMLG (UniProt P49069)
inactive: [1] -0.008 | filanesib 0.038 | zotarolimus -0.006 | idasanutlin -0.029 | alisertib -0.088 | [2] -0.052 | gefitinib 0.021 | [3] 0.073 | lapatinib -0.036 | pictilisib 0.077

BUB3 (UniProt O43684)
inactive: [1] -0.014 | filanesib -0.028 | zotarolimus -0.038 | idasanutlin -0.024 | alisertib -0.039 | [2] 0.04 | gefitinib 0.001 | [3] 0.027 | lapatinib -0.028 | pictilisib 0.05

CAPN2 (UniProt P17655)
inactive: [1] -0.043 | filanesib -0.096 | zotarolimus 0.016 | idasanutlin -0.024 | alisertib -0.111 | [2] -0.031 | gefitinib 0.01 | [3] 0.041 | lapatinib 0.006 | pictilisib 0.064

CANT1 (UniProt Q8WVQ1)
inactive: [1] 0.01 | filanesib -0.052 | zotarolimus -0.061 | idasanutlin -0.036 | alisertib 0.215 | [2] 0.017 | gefitinib -0.01 | [3] 0.04 | lapatinib -0.019 | pictilisib 0.114

C5orf22 (UniProt Q49AR2)
inactive: [1] -0.045 | filanesib -0.086 | zotarolimus -0.035 | idasanutlin -0.058 | alisertib -0.058 | [2] 0.099 | gefitinib -0.03 | [3] -0.005 | lapatinib 0.017 | pictilisib 0.044

C11orf98 (UniProt E9PRG8)
inactive: [1] -0.051 | filanesib 0.329 | zotarolimus 0.026 | idasanutlin 0.143 | alisertib -0.073 | [2] -0.012 | gefitinib -0.04 | [3] -0.127 | lapatinib 0.107 | pictilisib -0.081

C2CD2 (UniProt Q9Y426)
inactive: [1] 0.031 | filanesib 0.146 | zotarolimus 0.02 | idasanutlin 0.025 | alisertib 0.004 | [2] 0.1 | gefitinib 0.073 | [3] 0.041 | lapatinib 0.026 | pictilisib 0.063

C18orf25 (UniProt Q96B23)
inactive: [1] -0.031 | filanesib 0.008 | zotarolimus 0.059 | idasanutlin -0.026 | alisertib -0.008 | [2] 0.022 | gefitinib 0.059 | [3] 0.034 | lapatinib 0.005 | pictilisib 0.01

CAND1 (UniProt Q86VP6)
inactive: [1] 0.112 | filanesib -0.073 | zotarolimus -0.001 | idasanutlin -0.044 | alisertib -0.069 | [2] -0.046 | gefitinib -0.007 | [3] 0.006 | lapatinib 0.013 | pictilisib 0.027

Quoted from the entries so far (5 entries):
CAMLG (UniProt P49069)
inactive: [1] -0.008 | filanesib 0.038 | zotarolimus -0.006 | idasanutlin -0.029 | alisertib -0.088 | [2] -0.052 | gefitinib 0.021 | [3] 0.073 | lapatinib -0.036 | pictilisib 0.077

BUB3 (UniProt O43684)
inactive: [1] -0.014 | filanesib -0.028 | zotarolimus -0.038 | idasanutlin -0.024 | alisertib -0.039 | [2] 0.04 | gefitinib 0.001 | [3] 0.027 | lapatinib -0.028 | pictilisib 0.05

CAPN2 (UniProt P17655)
inactive: [1] -0.043 | filanesib -0.096 | zotarolimus 0.016 | idasanutlin -0.024 | alisertib -0.111 | [2] -0.031 | gefitinib 0.01 | [3] 0.041 | lapatinib 0.006 | pictilisib 0.064

CANT1 (UniProt Q8WVQ1)
inactive: [1] 0.01 | filanesib -0.052 | zotarolimus -0.061 | idasanutlin -0.036 | alisertib 0.215 | [2] 0.017 | gefitinib -0.01 | [3] 0.04 | lapatinib -0.019 | pictilisib 0.114

C5orf22 (UniProt Q49AR2)
inactive: [1] -0.045 | filanesib -0.086 | zotarolimus -0.035 | idasanutlin -0.058 | alisertib -0.058 | [2] 0.099 | gefitinib -0.03 | [3] -0.005 | lapatinib 0.017 | pictilisib 0.044

(cont.)

CAD (UniProt P27708)
inactive: [1] 0.019 | filanesib -0.054 | zotarolimus -0.014 | idasanutlin -0.03 | alisertib -0.058 | [2] -0.011 | gefitinib -0.044 | [3] 0.047 | lapatinib -0.031 | pictilisib -0.04

BZW2 (UniProt Q9Y6E2)
inactive: [1] -0.029 | filanesib -0.05 | zotarolimus 0.02 | idasanutlin -0.126 | alisertib -0.056 | [2] 0.011 | gefitinib -0.009 | [3] 0.023 | lapatinib -0.055 | pictilisib -0.034

BTAF1 (UniProt O14981)
inactive: [1] 0.018 | filanesib -0.006 | zotarolimus -0.004 | idasanutlin -0.095 | alisertib 0.175 | [2] 0.093 | gefitinib -0.045 | [3] -0.028 | lapatinib -0.01 | pictilisib -0.032

CAMKK2 (UniProt Q96RR4)
inactive: [1] -0.063 | filanesib 0.085 | zotarolimus -0.077 | idasanutlin -0.091 | alisertib -0.377 | [2] 0.12 | gefitinib 0.019 | [3] 0.015 | lapatinib 0.025 | pictilisib 0.035

CALU isoform 3 (UniProt O43852)
inactive: [1] -0.043 | filanesib -0.007 | zotarolimus -0.035 | idasanutlin 0.019 | alisertib -0.038 | [2] 0.012 | gefitinib 0.004 | [3] 0.058 | lapatinib -0.003 | pictilisib 0.001

C1GALT1C1 (UniProt Q96EU7)
inactive: [1] 0.041 | filanesib 0 | zotarolimus 0.065 | idasanutlin -0.025 | alisertib -0.007 | [2] 0.022 | gefitinib 0.032 | [3] -0.013 | lapatinib -0.007 | pictilisib 0.108

C1orf174 (UniProt Q8IYL3)
inactive: [1] -0.028 | filanesib 0.131 | zotarolimus 0.02 | idasanutlin 0.06 | alisertib -0.026 | [2] 0.039 | gefitinib 0.039 | [3] 0.007 | lapatinib 0.069 | pictilisib 0.043

C17orf80 (UniProt Q9BSJ5)
inactive: [1] -0.004 | filanesib 0.031 | zotarolimus 0.024 | idasanutlin -0.002 | alisertib 0.017 | [2] 0.013 | gefitinib 0.006 | [3] -0.031 | lapatinib -0.044 | pictilisib -0.001

CALU isoform 4 (UniProt O43852)
inactive: [1] -0.005 | filanesib -0.051 | zotarolimus -0.074 | idasanutlin -0.027 | alisertib 0.01 | [2] 0.04 | gefitinib 0.028 | [3] 0.04 | lapatinib -0.052 | pictilisib 0.03

BZW1 isoform 3 (UniProt Q7L1Q6)
inactive: [1] 0.033 | filanesib -0.069 | zotarolimus 0.052 | idasanutlin -0.152 | alisertib -0.078 | [2] -0.032 | gefitinib -0.028 | [3] -0.13 | lapatinib -0.071 | pictilisib -0.071

CAPRIN1 (UniProt Q14444)
inactive: [1] -0.048 | filanesib 0.196 | zotarolimus -0.042 | idasanutlin 0.118 | alisertib -0.041 | [2] -0.028 | gefitinib -0.012 | [3] -0.045 | lapatinib 0.027 | pictilisib -0.065

CARHSP1 (UniProt Q9Y2V2)
inactive: [1] -0.023 | filanesib -0.005 | zotarolimus -0.038 | idasanutlin -0.015 | alisertib 0.014 | [2] -0.089 | gefitinib 0.072 | [3] -0.051 | lapatinib 0.004 | pictilisib 0.089

C4orf33 (UniProt Q8N1A6)
inactive: [1] -0.055 | filanesib 0.072 | zotarolimus -0.009 | idasanutlin -0.054 | alisertib -0.17 | [2] -0.026 | gefitinib 0.029 | [3] 0.061 | lapatinib 0 | pictilisib 0.049

CANX isoform 2 (UniProt P27824)
inactive: [1] -0.041 | filanesib 0.022 | zotarolimus 0.014 | idasanutlin 0.044 | alisertib -0.087 | [2] -0.017 | gefitinib 0.01 | [3] -0.041 | lapatinib 0.041 | pictilisib -0.008

C16orf58 (UniProt Q96GQ5)
inactive: [1] -0.059 | filanesib -0.148 | zotarolimus -0.043 | idasanutlin -0.053 | alisertib -0.009 | [2] -0.009 | gefitinib 0.044 | [3] 0.037 | lapatinib 0.004 | pictilisib 0.015

C12orf45 (UniProt Q8N5I9)
inactive: [1] 0.052 | filanesib -0.012 | zotarolimus -0.012 | idasanutlin -0.02 | alisertib -0.055 | [2] 0.022 | gefitinib -0.039 | [3] 0 | lapatinib 0.004 | pictilisib 0.028

C17orf75 (UniProt Q9HAS0)
inactive: [1] -0.012 | filanesib -0.037 | zotarolimus 0.067 | idasanutlin -0.065 | alisertib 0 | [2] 0.012 | gefitinib 0.035 | [3] 0.022 | lapatinib 0.08 | pictilisib 0.028
